In paper PMC9178026 one finds binding data, which are given here for one molecule.

The chains behind the UniProt entries cited, without tags or fusion partners.
UniProt Q64010: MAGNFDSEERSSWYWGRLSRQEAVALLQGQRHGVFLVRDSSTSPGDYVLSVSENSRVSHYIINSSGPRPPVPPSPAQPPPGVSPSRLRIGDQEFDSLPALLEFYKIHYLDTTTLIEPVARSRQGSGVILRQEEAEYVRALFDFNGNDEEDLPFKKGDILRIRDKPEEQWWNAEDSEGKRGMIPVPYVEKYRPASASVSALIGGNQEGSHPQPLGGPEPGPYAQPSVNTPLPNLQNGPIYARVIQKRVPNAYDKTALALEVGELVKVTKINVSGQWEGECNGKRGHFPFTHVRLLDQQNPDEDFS

No constants are given. Whether binding was seen depends on the method and setting. Binding seen in cells or lysates may run through a third protein. Here binding means that the protein was enriched with, or labelled near, the bait; the list need not be complete.

The test concerns the target Adapter protein CRK (mouse (endogenous in E18.5 limb muscle and primary MuSC-derived myotubes)) (UniProt Q64010). Nature of the test: affinity purification with mass spectrometry; CRK immunoprecipitated from E18.5 limb muscle protein extracts of wild type and miR-1/206/133 tKO mice, triplicate sample sets, in gel digest, LC/MS2.

B1: RAC1-GEF FARP1 (protein, UniProt F8VPU2 1-1048)
chain: MGEIEQKPTPASRLGAPENSGISTLERGQKPPPTPSGKLMTVKIQMLDDTQEAFEVPQRAPGKVLFDAVCNHLNLVEGDYFGLEFPDHRKIVVWLDLLKPIVKQIRRPKHVVVKFVVKFFPPDHTQLQEELTRYLFALQVKQDLAQGRLTCNDTSAALLISHIVQSEIGDFDEALDREHLAKNKYVPQQDALEDRIMEFHHSHVGQTPAESDFQLLEVARRLEMYGIRLHPAKDREGTKINLAVANTGILVFQGFTKINAFNWAKVRKLSFKRKRFLIKLRPDVNSSYQDTLEFLMAGRDFCKSFWKICVEHHAFFRLFEEPKPKPKPVLFSRGSSFRFSGRTQKQVLDYVKEGGHKKVQFERKHSKIHSTRSLVSQPTAPNSEVPKQSPQSASLTFGEGTESPGGQSCQQAKETKACTLELGPHQSPALPKSPPGSKAADGTTVVPPEEEEEEEGGKDGIRPSNPQPPQPSTGSLTGSPHLSELSINSQGGAAPANVTLSPNLSPDNKQASPLISPLLNDQACPRTDDEEEGRRKRFPTDKAYYIAKEVSTTERTYLKDLEVIASWFQSTVSKEDSMPEALKSLIFPNFEPLHKFHTNFLKEIEQRLALWEGRSNAHVRGDYQRIGDVMLKNIQGMKHLAAHLWKHSEALEALETSIKGSRRLEHFCRDFELQKVCYLPLNTFLLRPLHRLMHYKHVLERLCKHHPPNHADFRDCRAALAEITEMVAQLHGTMIKMENFQKLHELKKDLIGIDNLVTPGREFIRLGSLSKLSGKGLQQRMFFLFNDVLLYTSRGLTASNQFKVHGQLPLYGMTIEESEEEWGVPHCLTLRGQRQSIIVAASSRSEMEKWMEDIQMAIDLAEKSNGPTPELLASSPPDNKSPDEATAADQESEDDLSASRTSLERQAPHRGNTMVHVCWHRSTSVSMVDFSIAVENQLSGNLLRKFKNSNGWQKLWVVFTNFCLFFYKSHQDSHPLASLPLLGYSLTIPSESENIHKDYVFKLHFKSHVYYFRAESEYTFERWMEVIRSATSSASRAHILSHKESHLY
For the molecule B1, the binding result is “binds”.
